Measurements as given in paper PMC10617773.
No constants are given. Whether binding was seen depends on the method and setting. Binding seen in cells or lysates may run through a third protein. These calls come from enrichment with a bait or labelling near it, and not all partners need be listed. For some assays here: Sequences can lack the tags named with a protein.

By UniProt entry, the sequences of proteins in these tests, tags left out.
UniProt P35991: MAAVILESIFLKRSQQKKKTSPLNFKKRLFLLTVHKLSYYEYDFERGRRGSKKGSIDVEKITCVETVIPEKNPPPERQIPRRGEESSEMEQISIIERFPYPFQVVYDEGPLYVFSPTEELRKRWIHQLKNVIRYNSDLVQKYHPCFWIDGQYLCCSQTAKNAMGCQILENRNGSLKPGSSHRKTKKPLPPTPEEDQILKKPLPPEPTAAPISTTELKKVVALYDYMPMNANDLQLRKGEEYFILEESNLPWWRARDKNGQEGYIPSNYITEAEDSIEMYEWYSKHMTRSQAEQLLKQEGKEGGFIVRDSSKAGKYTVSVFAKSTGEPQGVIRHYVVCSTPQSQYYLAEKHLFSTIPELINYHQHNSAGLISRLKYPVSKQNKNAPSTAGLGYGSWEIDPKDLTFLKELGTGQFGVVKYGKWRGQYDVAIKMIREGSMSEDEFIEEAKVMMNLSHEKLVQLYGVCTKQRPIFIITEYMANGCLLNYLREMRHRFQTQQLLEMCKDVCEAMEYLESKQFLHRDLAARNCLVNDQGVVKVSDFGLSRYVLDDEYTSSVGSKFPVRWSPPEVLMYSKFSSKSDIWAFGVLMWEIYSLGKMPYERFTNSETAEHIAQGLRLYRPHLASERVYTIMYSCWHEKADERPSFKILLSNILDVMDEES
UniProt Q62167: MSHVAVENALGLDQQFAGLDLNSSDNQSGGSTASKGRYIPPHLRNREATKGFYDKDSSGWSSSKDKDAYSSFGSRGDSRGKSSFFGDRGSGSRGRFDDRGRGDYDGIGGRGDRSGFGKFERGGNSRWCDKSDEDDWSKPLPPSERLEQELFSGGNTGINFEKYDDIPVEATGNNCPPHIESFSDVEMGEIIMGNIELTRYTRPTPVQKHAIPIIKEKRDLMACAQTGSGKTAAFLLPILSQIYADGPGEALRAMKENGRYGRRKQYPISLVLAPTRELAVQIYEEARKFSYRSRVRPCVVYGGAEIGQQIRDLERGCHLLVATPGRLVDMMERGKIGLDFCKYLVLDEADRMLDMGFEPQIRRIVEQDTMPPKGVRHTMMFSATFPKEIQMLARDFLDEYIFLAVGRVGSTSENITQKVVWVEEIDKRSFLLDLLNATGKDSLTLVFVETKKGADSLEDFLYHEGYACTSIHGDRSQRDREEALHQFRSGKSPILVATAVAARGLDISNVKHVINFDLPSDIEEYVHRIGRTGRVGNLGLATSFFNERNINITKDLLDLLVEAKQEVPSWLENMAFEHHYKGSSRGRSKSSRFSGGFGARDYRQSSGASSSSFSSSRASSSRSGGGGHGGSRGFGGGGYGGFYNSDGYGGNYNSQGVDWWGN

T1: BASU-tagged PLK1 (biotin ligase BASU connected to murine PLK1 with a (GGGS)3 linker) (mouse), Q07832
T1 chain: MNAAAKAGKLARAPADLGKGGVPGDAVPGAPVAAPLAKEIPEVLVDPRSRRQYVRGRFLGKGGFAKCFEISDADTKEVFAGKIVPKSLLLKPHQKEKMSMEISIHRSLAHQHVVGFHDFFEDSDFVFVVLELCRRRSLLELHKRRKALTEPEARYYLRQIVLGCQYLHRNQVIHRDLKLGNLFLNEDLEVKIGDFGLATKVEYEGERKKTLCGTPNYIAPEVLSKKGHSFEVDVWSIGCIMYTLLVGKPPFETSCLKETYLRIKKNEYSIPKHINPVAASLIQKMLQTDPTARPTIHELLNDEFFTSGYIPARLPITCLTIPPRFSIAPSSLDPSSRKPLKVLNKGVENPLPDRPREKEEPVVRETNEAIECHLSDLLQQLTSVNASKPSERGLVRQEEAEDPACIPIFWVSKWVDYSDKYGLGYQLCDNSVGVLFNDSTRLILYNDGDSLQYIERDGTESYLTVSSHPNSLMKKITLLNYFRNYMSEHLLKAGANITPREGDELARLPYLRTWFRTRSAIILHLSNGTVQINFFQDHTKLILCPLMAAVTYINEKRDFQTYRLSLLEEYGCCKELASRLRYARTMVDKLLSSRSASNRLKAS


How the values were obtained:
[1] = biological target: BASU-tagged PLK1 (biotin ligase BASU connected to murine PLK1 with a (GGGS)3 linker) (mouse) (UniProt Q07832); assay: proximity labelling; Bio-ID: iBMDMs stably expressing BASU-PLK1, primed (100 ng/mL LPS) and activated (10 μM nigericin, 2 hours) with 50 μM biotin, Ac-YVAD-cmk and glycine; biotinylated proteins purified on streptavidin magnetic beads, TMT labeling and LC-MS/MS; activated against primed; candidates that responded to BASU alone removed
[2] = biological target: T1, BASU-tagged PLK1 (biotin ligase BASU …); assay: as above; settings: remark: other sources report otherwise

| Molecule | binding [1] | binding [2] |
| --- | --- | --- |
| BTK (from UniProt P35991 1-659) | binds | – |
| DDX3X (from UniProt Q62167 1-662) | binds | – |
| GBP5 (protein, UniProt Q8CFB4 1-590) MAPEIHMPEPLCLIGSTEGHLVTNQEALKILSAITQPVVVVAIVGLYRTGKSYLMNKLAGKEKGFSVGSTVQSHTKGIWMWCVPHPQKPDHTLVLLDTEGLGDVEKDDKKNDTQIFALAILLSSTFVYNTMNKIDQGAIDLLHNVTELTDLLRTRNSSDSNQTEGEGPADMSFFPDLVWTLRDFFLDLQANGHAITSDEYLENSLKLKQGSDERTQTFNLPRLCIQKFFPVKKCFVFDAPALGSKLSQLPTLSNEELNSDFVQDLSEFCSHIFTQSKTKTLPGGIQVNGPRLESLVLTYVDAINSGALPSIENTVVTLARRENSAAVQKAIGHYDQLMSEKVQLPTETLQELLDLHRTCEREAIEIFRKHSFKDEGEFFQKELESLLSAKQDEICKKNADASAALCSTLLGSIFKPLEQEVAQEFYHKPGGHKLFLQRMEQLKANYRQQPGKGTQAEEVLQTYLNAKETVSRTILQTDQVLTDKEIQSKAEQERAEAARLEAQRLEAIRIQEEQRKAEMERQHQEQLRQIALEKARVAQEQQWILKQRAQEEADRIKAEQEAQLRALQQQLQHMREMNHHRRHHHDCVIS | binds | – |

Next, values leading:

| binding [1] | binding [2] | Molecule |
| --- | --- | --- |
| – | binds | NLR family pyrin domain-containing 3 (NLRP3), endogenous murine, Q8R4B8 1-1033 (protein) MTSVRCKLAQYLEDLEDVDLKKFKMHLEDYPPEKGCIPVPRGQMEKADHLDLATLMIDFNGEEKAWAMAVWIFAAINRRDLWEKAKKDQPEWNDTCTSHSSMVCQEDSLEEEWMGLLGYLSRISICKKKKDYCKMYRRHVRSRFYSIKDRNARLGESVDLNSRYTQLQLVKEHPSKQEREHELLTIGRTKMRDSPMSSLKLELLFEPEDGHSEPVHTVVFQGAAGIGKTILARKIMLDWALGKLFKDKFDYLFFIHCREVSLRTPRSLADLIVSCWPDPNPPVCKILRKPSRILFLMDGFDELQGAFDEHIGEVCTDWQKAVRGDILLSSLIRKKLLPKASLLITTRPVALEKLQHLLDHPRHVEILGFSEAKRKEYFFKYFSNELQAREAFRLIQENEVLFTMCFIPLVCWIVCTGLKQQMETGKSLAQTSKTTTAVYVFFLSSLLQSRGGIEEHLFSDYLQGLCSLAADGIWNQKILFEECDLRKHGLQKTDVSAFLRMNVFQKEVDCERFYSFSHMTFQEFFAAMYYLLEEEAEGETVRKGPGGCSDLLNRDVKVLLENYGKFEKGYLIFVVRFLFGLVNQERTSYLEKKLSCKISQQVRLELLKWIEVKAKAKKLQWQPSQLELFYCLYEMQEEDFVQSAMDHFPKIEINLSTRMDHVVSSFCIKNCHRVKTLSLGFFHNSPKEEEEERRGGRPLDQVQCVFPDTHVACSSRLVNCCLTSSFCRGLFSSLSTNRSLTELDLSDNTLGDPGMRVLCEALQHPGCNIQRLWLGRCGLSHQCCFDISSVLSSSQKLVELDLSDNALGDFGIRLLCVGLKHLLCNLQKLWLVSCCLTSACCQDLALVLSSNHSLTRLYIGENALGDSGVQVLCEKMKDPQCNLQKLGLVNSGLTSICCSALTSVLKTNQNFTHLYLRSNALGDTGLRLLCEGLLHPDCKLQMLELDNCSLTSHSCWNLSTILTHNHSLRKLNLGNNDLGDLCVVTLCEVLKQQGCLLQSLQLGEMYLNRETKRALEALQEEKPELTIVFEISW |
| binds | – | PKR (protein, UniProt Q03963 1-515) MASDTPGFYMDKLNKYRQMHGVAITYKELSTSGPPHDRRFTFQVLIDEKEFPEAKGRSKQEARNAAAKLAVDILDNENKVDCHTSASEQGLFVGNYIGLVNSFAQKKKLSVNYEQCEPNSELPQRFICKCKIGQTMYGTGSGVTKQEAKQLAAKEAYQKLLKSPPKTAGTSSSVVTSTFSGFSSSSSMTSNGVSQSAPGSFSSENVFTNGLGENKRKSGVKVSPDDVQRNKYTLDARFNSDFEDIEEIGLGGFGQVFKAKHRIDGKRYAIKRVKYNTEKAEHEVQALAELNHVNIVQYHSCWEGVDYDPEHSMSDTSRYKTRCLFIQMEFCDKGTLEQWMRNRNQSKVDKALILDLYEQIVTGVEYIHSKGLIHRDLKPGNIFLVDERHIKIGDFGLATALENDGKSRTRRTGTLQYMSPEQLFLKHYGKEVDIFALGLILAELLHTCFTESEKIKFFESLRKGDFSNDIFDNKEKSLLKKLLSEKPKDRPETSEILKTLAEWRNISEKKKRNTC |
